Test results reported in the supplement of paper PMC10849652.
Some of the results follow.

The chains behind the UniProt entries cited, without tags or fusion partners. Where a name states a change or a piece, a line headed by the entry shows the natural chain unless it says otherwise.
UniProt Q03936: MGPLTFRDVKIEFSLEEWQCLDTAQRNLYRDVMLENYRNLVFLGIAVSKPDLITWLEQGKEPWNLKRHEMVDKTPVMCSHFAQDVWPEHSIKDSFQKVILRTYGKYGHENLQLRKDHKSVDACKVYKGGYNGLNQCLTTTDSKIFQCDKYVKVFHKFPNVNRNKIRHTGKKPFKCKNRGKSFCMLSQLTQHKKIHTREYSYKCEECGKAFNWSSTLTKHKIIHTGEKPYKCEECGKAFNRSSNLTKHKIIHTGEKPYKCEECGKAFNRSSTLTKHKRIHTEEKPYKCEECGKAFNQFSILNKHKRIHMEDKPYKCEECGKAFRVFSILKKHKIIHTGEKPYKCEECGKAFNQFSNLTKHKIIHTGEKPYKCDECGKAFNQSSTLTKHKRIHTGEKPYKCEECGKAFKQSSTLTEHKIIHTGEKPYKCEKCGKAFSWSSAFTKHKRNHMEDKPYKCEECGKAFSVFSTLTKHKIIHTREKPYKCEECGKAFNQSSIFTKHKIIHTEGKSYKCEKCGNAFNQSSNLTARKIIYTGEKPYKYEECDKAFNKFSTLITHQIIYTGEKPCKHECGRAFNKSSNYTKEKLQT
UniProt O00488: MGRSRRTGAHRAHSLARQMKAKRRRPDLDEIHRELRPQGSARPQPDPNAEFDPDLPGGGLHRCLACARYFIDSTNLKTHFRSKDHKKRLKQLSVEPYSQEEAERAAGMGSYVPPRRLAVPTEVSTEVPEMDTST
UniProt P52747: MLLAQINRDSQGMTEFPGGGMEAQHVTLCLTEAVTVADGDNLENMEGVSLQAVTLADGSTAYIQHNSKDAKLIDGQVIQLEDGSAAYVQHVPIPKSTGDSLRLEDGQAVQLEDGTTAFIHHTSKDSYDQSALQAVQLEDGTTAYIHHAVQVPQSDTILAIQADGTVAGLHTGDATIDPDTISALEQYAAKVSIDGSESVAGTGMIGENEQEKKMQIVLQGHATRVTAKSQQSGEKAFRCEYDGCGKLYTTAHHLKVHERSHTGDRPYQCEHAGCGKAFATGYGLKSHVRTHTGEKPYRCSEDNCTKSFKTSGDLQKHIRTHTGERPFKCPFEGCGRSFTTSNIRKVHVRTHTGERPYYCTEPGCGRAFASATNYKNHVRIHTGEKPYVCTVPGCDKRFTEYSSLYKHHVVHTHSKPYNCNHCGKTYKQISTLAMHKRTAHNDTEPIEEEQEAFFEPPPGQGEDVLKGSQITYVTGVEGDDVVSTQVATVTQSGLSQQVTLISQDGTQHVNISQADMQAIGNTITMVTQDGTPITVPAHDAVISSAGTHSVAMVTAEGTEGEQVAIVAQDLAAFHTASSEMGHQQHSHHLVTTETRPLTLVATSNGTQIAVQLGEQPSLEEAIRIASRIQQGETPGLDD
UniProt Q86YA3: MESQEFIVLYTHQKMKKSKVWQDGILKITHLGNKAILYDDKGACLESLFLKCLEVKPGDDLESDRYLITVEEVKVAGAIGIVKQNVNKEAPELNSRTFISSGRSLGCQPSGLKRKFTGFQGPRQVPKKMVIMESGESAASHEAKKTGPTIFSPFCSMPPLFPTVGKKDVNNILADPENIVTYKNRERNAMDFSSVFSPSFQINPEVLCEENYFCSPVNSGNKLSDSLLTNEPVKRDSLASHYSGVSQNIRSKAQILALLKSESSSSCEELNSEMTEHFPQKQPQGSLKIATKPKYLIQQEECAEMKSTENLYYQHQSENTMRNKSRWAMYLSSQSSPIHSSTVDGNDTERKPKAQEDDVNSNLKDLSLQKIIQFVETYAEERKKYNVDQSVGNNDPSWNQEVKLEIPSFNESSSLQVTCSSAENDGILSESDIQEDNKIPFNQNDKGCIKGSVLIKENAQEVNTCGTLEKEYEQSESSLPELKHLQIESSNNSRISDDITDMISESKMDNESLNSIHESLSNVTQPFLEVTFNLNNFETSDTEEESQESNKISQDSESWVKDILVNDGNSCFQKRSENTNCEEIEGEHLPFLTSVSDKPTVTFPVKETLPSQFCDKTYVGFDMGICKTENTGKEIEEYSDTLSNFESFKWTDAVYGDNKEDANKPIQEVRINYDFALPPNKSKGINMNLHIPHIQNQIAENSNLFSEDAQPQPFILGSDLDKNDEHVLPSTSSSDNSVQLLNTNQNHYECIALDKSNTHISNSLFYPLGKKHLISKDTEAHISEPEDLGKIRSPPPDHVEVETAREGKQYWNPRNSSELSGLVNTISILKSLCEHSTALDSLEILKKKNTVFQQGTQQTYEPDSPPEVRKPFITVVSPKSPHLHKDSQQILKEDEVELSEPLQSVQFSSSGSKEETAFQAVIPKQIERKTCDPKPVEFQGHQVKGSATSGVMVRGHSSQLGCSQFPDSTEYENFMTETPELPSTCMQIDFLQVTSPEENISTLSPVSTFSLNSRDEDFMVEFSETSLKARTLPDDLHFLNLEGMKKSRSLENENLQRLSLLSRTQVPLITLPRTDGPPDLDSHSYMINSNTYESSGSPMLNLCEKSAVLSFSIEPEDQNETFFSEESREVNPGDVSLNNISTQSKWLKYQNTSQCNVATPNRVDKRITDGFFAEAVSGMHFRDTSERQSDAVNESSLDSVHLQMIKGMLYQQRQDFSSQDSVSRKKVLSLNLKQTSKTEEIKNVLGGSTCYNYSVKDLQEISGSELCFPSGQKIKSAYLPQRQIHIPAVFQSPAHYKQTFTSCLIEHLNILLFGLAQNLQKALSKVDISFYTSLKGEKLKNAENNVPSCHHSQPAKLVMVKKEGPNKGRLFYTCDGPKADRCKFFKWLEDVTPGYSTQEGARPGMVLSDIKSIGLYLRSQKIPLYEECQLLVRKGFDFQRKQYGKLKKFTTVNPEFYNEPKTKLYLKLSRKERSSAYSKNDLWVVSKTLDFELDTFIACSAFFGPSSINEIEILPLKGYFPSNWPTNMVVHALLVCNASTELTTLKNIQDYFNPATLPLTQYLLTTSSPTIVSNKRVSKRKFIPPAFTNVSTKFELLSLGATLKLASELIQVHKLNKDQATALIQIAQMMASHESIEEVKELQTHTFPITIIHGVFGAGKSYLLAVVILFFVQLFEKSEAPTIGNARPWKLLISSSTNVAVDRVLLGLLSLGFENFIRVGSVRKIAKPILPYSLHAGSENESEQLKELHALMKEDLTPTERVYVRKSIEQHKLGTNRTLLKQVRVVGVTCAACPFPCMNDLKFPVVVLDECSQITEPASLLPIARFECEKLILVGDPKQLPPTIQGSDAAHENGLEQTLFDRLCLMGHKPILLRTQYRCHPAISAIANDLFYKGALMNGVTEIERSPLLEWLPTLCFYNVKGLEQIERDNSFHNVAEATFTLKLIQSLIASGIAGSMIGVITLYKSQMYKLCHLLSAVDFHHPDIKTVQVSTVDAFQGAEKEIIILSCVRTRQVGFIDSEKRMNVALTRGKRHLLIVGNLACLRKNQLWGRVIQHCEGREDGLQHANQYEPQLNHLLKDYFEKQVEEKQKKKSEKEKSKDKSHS
UniProt Q96PM9: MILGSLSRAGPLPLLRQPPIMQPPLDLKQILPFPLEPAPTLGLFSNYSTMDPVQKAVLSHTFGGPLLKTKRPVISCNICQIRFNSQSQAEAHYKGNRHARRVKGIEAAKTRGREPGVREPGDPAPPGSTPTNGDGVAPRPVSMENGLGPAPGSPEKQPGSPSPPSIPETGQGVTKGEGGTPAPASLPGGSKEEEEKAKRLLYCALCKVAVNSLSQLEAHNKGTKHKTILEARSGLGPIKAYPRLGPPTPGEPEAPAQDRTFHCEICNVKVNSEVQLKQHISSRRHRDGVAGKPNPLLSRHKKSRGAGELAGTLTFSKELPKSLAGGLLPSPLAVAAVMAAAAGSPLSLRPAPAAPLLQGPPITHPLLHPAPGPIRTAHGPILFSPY
UniProt P35789: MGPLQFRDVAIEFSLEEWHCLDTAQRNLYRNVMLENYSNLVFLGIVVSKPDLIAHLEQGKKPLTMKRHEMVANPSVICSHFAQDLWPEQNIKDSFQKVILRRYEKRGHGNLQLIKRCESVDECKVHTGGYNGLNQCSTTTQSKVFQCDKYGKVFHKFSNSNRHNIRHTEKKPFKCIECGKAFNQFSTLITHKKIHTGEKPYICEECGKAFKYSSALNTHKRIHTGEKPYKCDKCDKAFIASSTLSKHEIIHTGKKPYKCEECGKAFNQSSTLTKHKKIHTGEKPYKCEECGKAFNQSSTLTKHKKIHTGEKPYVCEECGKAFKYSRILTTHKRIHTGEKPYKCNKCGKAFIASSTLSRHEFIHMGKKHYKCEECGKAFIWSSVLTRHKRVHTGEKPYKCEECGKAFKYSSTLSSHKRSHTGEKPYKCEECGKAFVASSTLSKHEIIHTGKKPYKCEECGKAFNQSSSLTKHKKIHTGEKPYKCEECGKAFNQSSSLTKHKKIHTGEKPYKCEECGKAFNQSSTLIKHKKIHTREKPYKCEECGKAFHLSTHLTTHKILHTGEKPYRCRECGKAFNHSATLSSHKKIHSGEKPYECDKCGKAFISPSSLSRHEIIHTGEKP
UniProt Q9UID6: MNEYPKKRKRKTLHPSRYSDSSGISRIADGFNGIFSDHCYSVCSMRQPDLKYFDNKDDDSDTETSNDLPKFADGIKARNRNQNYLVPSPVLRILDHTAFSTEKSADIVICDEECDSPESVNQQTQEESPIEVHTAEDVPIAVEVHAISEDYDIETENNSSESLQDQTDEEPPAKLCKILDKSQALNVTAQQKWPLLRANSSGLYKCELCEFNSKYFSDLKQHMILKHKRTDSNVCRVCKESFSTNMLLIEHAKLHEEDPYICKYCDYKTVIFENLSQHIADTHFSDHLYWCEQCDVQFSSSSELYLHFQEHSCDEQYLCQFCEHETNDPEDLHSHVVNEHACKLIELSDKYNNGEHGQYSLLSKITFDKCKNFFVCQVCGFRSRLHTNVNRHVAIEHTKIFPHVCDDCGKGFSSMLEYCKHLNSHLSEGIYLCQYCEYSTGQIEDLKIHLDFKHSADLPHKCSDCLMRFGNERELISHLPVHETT
UniProt Q5BKZ1: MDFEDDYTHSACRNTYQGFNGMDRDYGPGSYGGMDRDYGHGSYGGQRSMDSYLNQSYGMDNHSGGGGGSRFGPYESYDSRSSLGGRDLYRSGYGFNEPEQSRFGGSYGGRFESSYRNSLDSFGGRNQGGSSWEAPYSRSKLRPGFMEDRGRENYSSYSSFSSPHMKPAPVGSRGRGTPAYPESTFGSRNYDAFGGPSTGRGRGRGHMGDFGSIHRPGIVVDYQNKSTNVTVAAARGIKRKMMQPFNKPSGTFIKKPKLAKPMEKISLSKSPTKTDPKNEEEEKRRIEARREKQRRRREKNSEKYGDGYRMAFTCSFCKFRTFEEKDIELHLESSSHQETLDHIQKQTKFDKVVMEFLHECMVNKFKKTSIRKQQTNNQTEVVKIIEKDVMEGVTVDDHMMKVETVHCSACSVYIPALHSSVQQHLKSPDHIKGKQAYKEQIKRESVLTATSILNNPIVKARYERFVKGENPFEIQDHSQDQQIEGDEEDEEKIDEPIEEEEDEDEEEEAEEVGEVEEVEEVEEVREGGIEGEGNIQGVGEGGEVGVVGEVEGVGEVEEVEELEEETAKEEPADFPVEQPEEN
UniProt K7EIQ3: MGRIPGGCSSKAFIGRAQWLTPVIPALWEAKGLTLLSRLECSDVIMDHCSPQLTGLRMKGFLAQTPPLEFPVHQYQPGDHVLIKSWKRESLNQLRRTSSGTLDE
UniProt Q7L945: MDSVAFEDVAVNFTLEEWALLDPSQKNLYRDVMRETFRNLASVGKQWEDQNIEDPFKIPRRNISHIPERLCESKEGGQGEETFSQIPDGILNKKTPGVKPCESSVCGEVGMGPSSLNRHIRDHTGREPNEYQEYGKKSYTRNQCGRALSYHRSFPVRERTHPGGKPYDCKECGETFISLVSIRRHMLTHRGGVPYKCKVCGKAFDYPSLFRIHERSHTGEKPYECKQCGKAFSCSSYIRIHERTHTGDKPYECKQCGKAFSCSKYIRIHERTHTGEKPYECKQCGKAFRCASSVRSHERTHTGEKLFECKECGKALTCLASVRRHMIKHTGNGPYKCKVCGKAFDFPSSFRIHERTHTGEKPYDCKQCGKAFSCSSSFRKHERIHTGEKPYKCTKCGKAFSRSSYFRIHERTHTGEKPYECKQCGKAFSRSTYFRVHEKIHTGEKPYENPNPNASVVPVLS
UniProt Q16600: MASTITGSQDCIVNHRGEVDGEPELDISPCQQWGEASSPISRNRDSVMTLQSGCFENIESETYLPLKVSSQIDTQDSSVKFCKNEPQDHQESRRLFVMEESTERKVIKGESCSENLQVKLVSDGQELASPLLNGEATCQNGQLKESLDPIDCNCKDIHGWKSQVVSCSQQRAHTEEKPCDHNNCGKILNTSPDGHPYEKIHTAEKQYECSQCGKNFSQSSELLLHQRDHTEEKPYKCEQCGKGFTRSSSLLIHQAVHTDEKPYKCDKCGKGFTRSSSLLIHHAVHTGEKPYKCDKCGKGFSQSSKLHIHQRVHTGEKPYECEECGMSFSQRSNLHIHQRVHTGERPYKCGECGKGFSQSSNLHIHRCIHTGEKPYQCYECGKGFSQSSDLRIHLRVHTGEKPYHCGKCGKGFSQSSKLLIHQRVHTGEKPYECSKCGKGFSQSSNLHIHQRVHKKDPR

Assays:
Experiment in all cases: log2 fold change, soluble protein after heating vs DMSO (PISA); higher = thermal stabilisation; K562 lysate, 10 uM; active = over 0.2 and 3.5 SD of the protein, either way, in both replicates (recomputed)
lapatinib = compound: CS(=O)(=O)CCNCc1ccc(-c2ccc3ncnc(Nc4ccc(OCc5cccc(F)c5)c(Cl)c4)c3c2)o1 [lapatinib]
How it was run: (§1)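 The values are log-two fold changes in thermal stability compared with solvent controls and come from duplicates. They were obtained by TMTpro 16plex LC-MS/MS, with channel sums equalised, on the supernatant after 21,000xg for 90 min. That supernatant came from crude K562 extract at 1 mg/mL protein treated with 10 μM compound for 30 min, heated for 3 min across 48°C-58°C, pooled and brought to 0.5% NP-40 at 4°C.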

pictilisib = compound: CS(=O)(=O)N1CCN(Cc2cc3nc(-c4cccc5[nH]ncc45)nc(N4CCOCC4)c3s2)CC1 [pictilisib]
How it was run: as §1

crizotinib = compound: C[C@@H](Oc1cc(-c2cnn(C3CCNCC3)c2)cnc1N)c1c(Cl)ccc(F)c1Cl [crizotinib]
How it was run: as §1

[1] = compound: C[C@H](C1=CC=C(C=C1)C(=O)NC2=C3C=CNC3=NC=C2)N
How it was run: as §1

duvelisib = compound: C[C@H](Nc1ncnc2nc[nH]c12)c1cc2cccc(Cl)c2c(=O)n1-c1ccccc1 [duvelisib]
How it was run: as §1

gandotinib = compound: Cc1cc(Nc2cc(CN3CCOCC3)c3nc(C)c(Cc4ccc(Cl)cc4F)n3n2)n[nH]1 [gandotinib]
How it was run: as §1

doramapimod = compound: Cc1ccc(-n2nc(C(C)(C)C)cc2NC(=O)Nc2ccc(OCCN3CCOCC3)c3ccccc23)cc1 [doramapimod]
How it was run: as §1

bafetinib = compound: Cc1ccc(NC(=O)c2ccc(CN3CC[C@H](N(C)C)C3)c(C(F)(F)F)c2)cc1Nc1nccc(-c2cncnc2)n1 [bafetinib]
How it was run: as §1

[2] = compound: Cc1cccc(CC(=O)N2CCc3c2ccc(-c2cn(C)c4ncnc(N)c24)c3F)n1
How it was run: as §1

nilotinib = compound: Cc1cn(-c2cc(NC(=O)c3ccc(C)c(Nc4nccc(-c5cccnc5)n4)c3)cc(C(F)(F)F)c2)cn1 [nilotinib]
How it was run: as §1

[3] = compound: Cc1nc(Nc2n[nH]c3c2CN(C(=O)N[C@H](CN(C)C)c2ccccc2)C3(C)C)c2sccc2n1
How it was run: as §1

dasatinib = compound: Cc1nc(Nc2ncc(C(=O)Nc3c(C)cccc3Cl)s2)cc(N2CCN(CCO)CC2)n1 [dasatinib]
How it was run: as §1

[4] = compound: Cc1ncc(-c2ccnc(Nc3ccc(S(C)(=O)=O)cc3)n2)n1C(C)C
How it was run: as §1

[5] = compound: Cn1cc(-c2ccc3c(c2)CCN3C(=O)Cc2cccc(C(F)(F)F)c2)c2c(N)ncnc21
How it was run: as §1

quisinostat = compound: Cn1cc(CNCC2CCN(c3ncc(C(=O)NO)cn3)CC2)c2ccccc21 [quisinostat]
How it was run: as §1

tipifarnib = compound: Cn1cncc1[C@@](N)(c1ccc(Cl)cc1)c1ccc2c(c1)c(-c1cccc(Cl)c1)cc(=O)n2C [tipifarnib]
How it was run: as §1

[6] = compound: NC(=O)Nc1cc(-c2cccc(F)c2)sc1C(=O)N[C@H]1CCCNC1
How it was run: as §1

[7] = compound: NC(=O)c1cnc(N[C@@H]2CCCC[C@@H]2N)nc1Nc1cccc(-n2nccn2)c1
How it was run: as §1

[8] = compound: NC1(c2ccc(-c3nc4ccn5c(=O)[nH]nc5c4cc3-c3ccccc3)cc2)CCC1
How it was run: as §1

tozasertib = compound: Cc1cc(Nc2cc(N3CCN(C)CC3)nc(Sc3ccc(NC(=O)C4CC4)cc3)n2)n[nH]1 [tozasertib]
How it was run: as §1

Measured: log2 fold change

ZNF92 (UniProt Q03936)
inactive: lapatinib -0.102 | pictilisib 0.04 | crizotinib 0.051 | [1] -0.087 | duvelisib 0.068 | gandotinib -0.121 | doramapimod -0.03 | bafetinib 0.04 | [2] 0.022 | nilotinib 0.066 | [3] -0.038 | dasatinib 0.01 | [4] -0.015 | [5] 0 | quisinostat 0.142 | tipifarnib 0.046 | [6] -0.152 | [7] 0.194 | [8] -0.014

ZZEF1 (UniProt O43149)
inactive: lapatinib -0.023 | pictilisib -0.024 | crizotinib -0.092 | [1] -0.113 | duvelisib 0.028 | gandotinib 0.038 | tozasertib -0.011 | doramapimod 0.029 | bafetinib -0.083 | [2] 0.123 | nilotinib -0.022 | [3] 0 | dasatinib -0.018 | [4] 0.015 | [5] -0.006 | quisinostat -0.07 | tipifarnib 0.007 | [6] 0.008 | [7] 0.021 | [8] -0.03

ZNF593 (UniProt O00488)
inactive: lapatinib -0.114 | pictilisib 0.078 | crizotinib 0.113 | [1] -0.087 | duvelisib 0.089 | gandotinib 0.016 | tozasertib 0.047 | doramapimod 0.033 | bafetinib 0.059 | [2] 0.045 | dasatinib 0.125 | [5] -0.042 | quisinostat 0.02 | [6] 0.063 | [7] 0.295 | [8] 0.03

ZNF618 (UniProt Q5T7W0)
inactive: lapatinib 0 | pictilisib 0.012 | crizotinib -0.038 | [1] -0.028 | duvelisib -0.015 | gandotinib 0.065 | tozasertib 0.016 | doramapimod 0.036 | bafetinib -0.036 | [2] 0.041 | nilotinib 0.039 | [3] 0.15 | dasatinib -0.002 | [4] 0.025 | [5] -0.025 | quisinostat -0.051 | tipifarnib 0.048 | [6] 0.007 | [7] 0.053 | [8] 0.015

ZNF143 (UniProt P52747)
inactive: lapatinib 0.065 | pictilisib 0.004 | crizotinib 0.028 | [1] -0.048 | duvelisib 0.005 | gandotinib 0.029 | tozasertib -0.027 | doramapimod -0.012 | bafetinib 0.01 | [2] 0.023 | nilotinib -0.09 | [3] 0.044 | dasatinib 0.013 | [4] -0.1 | [5] 0.003 | quisinostat 0.051 | tipifarnib -0.044 | [6] -0.01 | [7] -0.052 | [8] -0.01

ZGRF1 (UniProt Q86YA3)
inactive: crizotinib -0.011 | [1] -0.159 | duvelisib 0.015 | gandotinib 0.314 | tozasertib 0.007 | doramapimod -0.002 | [2] -0.188 | dasatinib -0.008 | [5] -0.029 | quisinostat -0.017 | [6] 0.132

ZNF385A (UniProt Q96PM9)
inactive: pictilisib 0.067 | crizotinib 0.033 | doramapimod 0.096 | bafetinib -0.044 | nilotinib 0.012 | [3] 0.081 | [4] 0.029 | quisinostat 0.043 | tipifarnib -0.094 | [6] 0.089 | [8] 0.086

ZKSCAN4 (UniProt Q969J2)
inactive: lapatinib 0.109 | crizotinib -0.047 | doramapimod 0.075 | quisinostat -0.038 | [6] -0.064 | [7] 0.061 | [8] -0.049

ZNF100 (UniProt Q8IYN0)
inactive: pictilisib 0.015 | crizotinib -0.255 | doramapimod 0.009 | bafetinib -0.031 | quisinostat -0.198 | [6] 0.198

Random excerpt: 2 entries already listed, in no set order.
ZKSCAN4 (UniProt Q969J2)
inactive: lapatinib 0.109 | crizotinib -0.047 | doramapimod 0.075 | quisinostat -0.038 | [6] -0.064 | [7] 0.061 | [8] -0.049

ZNF143 (UniProt P52747)
inactive: lapatinib 0.065 | pictilisib 0.004 | crizotinib 0.028 | [1] -0.048 | duvelisib 0.005 | gandotinib 0.029 | tozasertib -0.027 | doramapimod -0.012 | bafetinib 0.01 | [2] 0.023 | nilotinib -0.09 | [3] 0.044 | dasatinib 0.013 | [4] -0.1 | [5] 0.003 | quisinostat 0.051 | tipifarnib -0.044 | [6] -0.01 | [7] -0.052 | [8] -0.01

Next part.

ZNF93 (UniProt P35789)
inactive: lapatinib -0.005 | crizotinib -0.005 | duvelisib -0.082 | tozasertib 0.072 | doramapimod 0.015 | nilotinib -0.09 | [3] -0.101 | dasatinib -0.073 | [4] -0.039 | [5] -0.021 | quisinostat -0.104 | tipifarnib -0.134 | [6] 0.044 | [7] -0.056 | [8] 0.091

ZNF639 (UniProt Q9UID6)
inactive: crizotinib -0.026 | [1] 0.032 | duvelisib 0.053 | gandotinib -0.064 | doramapimod -0.006 | [2] 0.055 | nilotinib -0.071 | [3] 0.131 | dasatinib -0.009 | [4] -0.02 | [5] 0.036 | quisinostat -0.013 | tipifarnib 0.003 | [6] -0.004 | [8] -0.006

ZNF326 (UniProt Q5BKZ1)
inactive: crizotinib -0.032 | [1] -0.014 | duvelisib 0.102 | gandotinib -0.012 | tozasertib -0.012 | doramapimod -0.023 | [2] -0.014 | nilotinib -0.053 | [3] -0.002 | dasatinib -0.021 | [4] -0.047 | [5] -0.005 | quisinostat 0.007 | tipifarnib 0.084 | [6] -0.008 | [8] 0.06

ZNF595 (UniProt Q8IYB9)
inactive: crizotinib 0.046 | [1] -0.146 | gandotinib 0.112 | tozasertib 0.029 | doramapimod 0.09 | [2] 0.215 | quisinostat -0.027 | [6] -0.142

ZNF445 (UniProt P59923)
inactive: pictilisib -0.091 | duvelisib 0.037 | bafetinib -0.188 | dasatinib 0.083 | [5] -0.026 | [8] -0.313

ZNF561-AS1 (UniProt K7EIQ3)
inactive: pictilisib -0.006 | bafetinib -0.381 | [8] 0.123

ZNF627 (UniProt Q7L945)
inactive: pictilisib -0.019 | crizotinib 0.128 | [1] -0.001 | gandotinib 0.023 | doramapimod 0.119 | bafetinib 0.008 | [2] -0.054 | quisinostat 0.023 | [6] 0.113 | [8] -0.062

ZNF239 (UniProt Q16600)
inactive: pictilisib 0.091 | crizotinib 0.04 | [1] 0.126 | gandotinib -0.167 | tozasertib 0.074 | doramapimod -0.063 | bafetinib -0.109 | [2] -0.124 | nilotinib -0.02 | [3] 0.072 | [4] 0.077 | quisinostat -0.075 | tipifarnib -0.043 | [6] -0.054 | [8] -0.019

ZNF148 (UniProt Q9UQR1)
inactive: pictilisib -0.048 | crizotinib 0.079 | [1] 0.122 | duvelisib 0.028 | gandotinib -0.022 | tozasertib -0.036 | doramapimod 0.119 | bafetinib 0.099 | [2] 0.034 | nilotinib -0.203 | [3] -0.033 | dasatinib 0.121 | [4] -0.109 | [5] -0.045 | quisinostat -0.184 | tipifarnib 0.124 | [6] -0.007 | [8] -0.028
